In PMC7927077, “Glucose-Binding of Periplasmic Protein GltB Activates GtrS-GltR Two-Component System in Pseudomonas aeruginosa” (Microorganisms, 2021):
No constants are given. Whether binding was seen depends on the method and setting. Binding seen in cells or lysates may run through a third protein. Binding calls can cover weak binding; strength is not graded here. Sequences can lack the tags named with a protein.

Biological target: GltB (endogenous, P. aeruginosa PAO1) (P. aeruginosa PAO1 (endogenous in PAO1))
Experiment: co-IP; lysate of PAO1/p-gtrS-YFP (ΔgltB/p-gtrS-YFP as negative control), cells 1 min in M8 medium with 10 mM glucose; resin with rabbit anti-GltB polyclonal antibody, overnight 4 °C; western blot

B1: yellow fluorescent protein (YFP)-tagged GtrS (GtrS-YFP) (protein, UniProt Q9HZ47 1-473)
chain: MPRSLLGRMLLLTLLAVLVAQGLSSLFWLSHLRSSQREGLLTSSRSLAYSMAASVSYFRSLPLGYRPLVLDQLRSMGGTRFFVSLNDRPLEMRALPDTPNKQAVLEIVQDVLHQRLGKEVELQVEFVSPDELRLFNGALKLDELPRSWAHYALTLEPVNPPVLVTQIRIGESEWLYIASLMPAPYVSLEPEGLQPQQVLSIVFTSLLLLLFTGLLMHWQSRPLKRLARAARDLALGSPSAALEERGASELVEVARAFNTMHERIDRYLNERGQLFSAISHDLRTPITRLRLRVELLEDERLQEKFGRDLDELELLVKGALQCVKDTDIHENVESVDLNLLLQHIAEPYLADGRVEVVGRAAEPYPGKPLALKRCIGNLLDNALKYGERARLSLEDGPEAVVLHVDDDGPGVPEQRLEQIFEPRFRLSPRGQGYGLGLGIARNIAHTHGGEVSLQNRREGGLRVSLRLPRLGLE
Q: With B1 as the binder, how does the binding read?
A: Its binding is “binds”.
